# Test results published in the supplement of paper PMC7411640.
# Structures can show the parent of a compound that is named as a salt. Some of the results follow. Single values are uncertain here, since repeats match poorly.
# Test system: MDA-MB-468
# Assay: phospho-S6 immunofluorescence (DAPI-normalised), per-plate z-score; higher = higher phospho-S6 signal (less pathway suppression)
# Conditions: 24 h
# Experimental: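 GPCR-targeted compound library (MedChemExpress HY-L006) tested on MDA-MB-468 PTEN-null TNBC cells in 384-well plates at 0.1, 1 or 10 uM, combined with vehicle, GDC0941 450 nM or lapatinib 1 uM, for 24 h. Phospho-S6 (S240/244) immunofluorescence normalised to DAPI and expressed as a per-plate z-score; values are the mean of biological triplicates.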
# [1] = compound 0.1 µM, co-treatment: GDC0941 450 nM
# [2] = compound 0.1 µM, co-treatment: lapatinib 1 uM
# [3] = compound 0.1 µM, co-treatment: vehicle
# [4] = compound 1 µM, co-treatment: GDC0941 450 nM
# [5] = compound 1 µM, co-treatment: lapatinib 1 uM
# [6] = compound 1 µM, co-treatment: vehicle
# [7] = compound 10 µM, co-treatment: GDC0941 450 nM
# [8] = compound 10 µM, co-treatment: lapatinib 1 uM
# [9] = compound 10 µM, co-treatment: vehicle
SMILES,phospho-S6 immunofluorescence (z-score) [1],phospho-S6 immunofluorescence (z-score) [2],phospho-S6 immunofluorescence (z-score) [3],phospho-S6 immunofluorescence (z-score) [4],phospho-S6 immunofluorescence (z-score) [5],phospho-S6 immunofluorescence (z-score) [6],phospho-S6 immunofluorescence (z-score) [7],phospho-S6 immunofluorescence (z-score) [8],phospho-S6 immunofluorescence (z-score) [9]
O=S(=O)(O)c1cc(O)ccc1O [Ethamsylate],0.12,0.02,1.29,-0.82,-0.07,-0.35,,,
Cc1nccn1CC1CCc2c(c3ccccc3n2C)C1=O (configuration not stated) [Ondansetron (hydrochloride dihydrate)],0.9,-1.09,-0.06,0.16,0.19,-0.36,0.11,-0.58,0.16
CCOc1ccccc1OCCN[C@H](C)Cc1ccc(OC)c(S(N)(=O)=O)c1 [Tamsulosin],-0.07,-0.33,-0.67,-0.28,-0.26,-1.28,-1.32,0.1,-0.53
COC(c1ccccc1)(c1ccccc1)[C@H](Oc1nc(C)cc(C)n1)C(=O)O [Ambrisentan],1.04,0.25,-0.4,0.57,0.01,0.55,1.18,0.5,-0.07
CCN(CC)CCNC(=O)c1cc(Cl)c(N)cc1OC [Metoclopramide (hydrochloride hydrate)],0.06,-0.2,0.35,-0.39,0.37,-0.45,-0.35,0.77,0.05
